Source: patent US8088801B2, “Aryloazol-2-yl cyanoethylamino compounds, method of making and method of using thereof” (Merial Limited, priority 2007, dated 2012)
Some of these results come from one statement about several compounds together. At least one compound was matched to its structure with a doubt left.

How the values were obtained:
Haemonchus contortus [1] = assay: Method B: Haemonchus contortus in vivo in Mongolian gerbil, oral gavage; parameters: species or system Mongolian gerbil (Meriones unguiculatus); settings: Mongolian gerbils, dose 0.5 mg/kg
Experimental: Method B: Screening Method to Test Activity of Compounds Against Haemonchus contortus In Vivo in Mongolian Gerbil (Meriones unguiculatus).
Mongolian gerbils, at least five weeks old, were immunosuppressed and artificially infected with ca. 1000 ensheathed Haemonchus contortus third instar larvae. Six days after infection, the Mongolian gerbils were treated by oral gavage with the test compounds, dissolved in a mixture of 2 parts DMSO and 1 part polyethylene glycol (PEG400), at doses of 100 mg/kg and dissolved in pure polyethylene glycol (PEG400) at doses of 10 and 1 mg/kg. Jirds treated only with the placebo (2 parts DMSO and 1 part PEG400 or pure PEG400) served as controls. On day 9 (3 days after treatment) the jirds were euthanized and necropsied for recovery of parasites from the stomach. Efficacy was calculated as the average % reduction in the number of worms in each test group compared with the average number of worms from the control group. […] Compound numbers 1.001, 1.008, 1.012, 1.013 and 1.014 provided at least 95% reduction in nematode infestation in Mongolian gerbils treated by oral gavage with test article at a dose of 100 mg/kg. Compound numbers 1.012, 1.033, 1.064, 2.008, 2.037, 2.038, 2.040, 2.041, 3.001 provided at least 95% reduction in nematode infestation at a dose of 10 mg/kg. […]

[2] = test system: Microfilaria of Dirofilaria immitis; assay: Method F: microfilaria of Dirofilaria immitis in microtitre plate; settings: test concentration 50 ppm, assessment at 24 hours
Experimental: Method F: Screening Method to Test Activity of Compounds Against Microfilaria of Dirofilaria immitis.
Four hundred to six hundred microfilaria of Dirofilaria immitis were added to wells of a microtitre plate containing buffer and the test compound in DMSO. The microtitre plate was then held at 37° C. in an environment containing 5% CO2. An assessment was conducted at 24 hours to determine survival of the microfilaria. Microfilaria exposed to DMSO and no test compound served as controls. Compounds numbers 1.003, 1.012, 1.013, 1.064, 1.086, 1.087, 1.090, 1.094, 2.043, 2.046, 2.047, 2.048, 2.049, 3.005, 3.006, 3.009, 3.011, 3.012, 3.017, 3.019 and 3.023 gave at least 90% motility inhibition at a test concentration of 50 ppm.

Haemonchus contortus [3] = assay: Method A: screening against Haemonchus contortus, L1 larvae in microtitre plate; settings: 4 days assessment
[4] = test system: Trichostrongylus colubriformis; assay: Method D: screening against Trichostrongylus colubriformis, L1 larvae in microtitre plate; settings: 4 days assessment
Experimental: Method D: Screening Method to Test Activity of Compounds Against Trichostrongylus colubriformis.
Twenty L1 Trichostrongylus colubriformis larvae were added to wells of a microtitre plate containing a nutrient medium and the test compound in DMSO. The microtitre plate was then held at 27° C. where the L1 larvae were allowed to develop. An analysis was conducted at 4 days to determine successful development to the L3 stage. Larvae exposed to DMSO and no test compound served as controls. Compounds numbers 1.008, 1.014, 1.042, 1.047, 1.048, 1.073, 2.001, 2.003 and 2.020, gave at least 90% motility inhibition at a test concentration of 0.15 ppm at the 4 days assessment. Compounds numbers 1.001, 1.003, 1.007, 1.011, 1.037, 1.038, 1.043, 1.056, 1.066, 1.070, 1.071, 2.012 and 2.016, gave at least 90% motility inhibition at a test concentration of 0.04 ppm at the 4 days assessment. Compounds numbers 1.012, 1.020, 1.021, 1.033, 1.034, 1.039, 1.064, 1.065, 2.008, 2.009 and 3.005 gave at least 90% motility inhibition at a test concentration of 0.01 ppm at the 4 days assessment. Compounds numbers 1.094, 2.040, 2.048, 2.049, 3.006, 3.009, 3.011 and 3.012 gave at least 90% motility inhibition at a test concentration of 0.0025 ppm at the 4 days assessment.

SMILES	reduction in nematode infestation (Haemonchus contortus [1])	motility inhibition [2]	motility inhibition (Haemonchus contortus [3]; test concentration 0.0025 ppm)	motility inhibition ([4]; test concentration 0.0025 ppm)	motility inhibition (Haemonchus contortus [3]; test concentration 0.04 ppm)	motility inhibition ([4]; test concentration 0.04 ppm)
CC(C#N)(Cn1cc2ncc(Cl)cc2n1)NC(=O)c1ccc(SC(F)(F)F)cc1 (centres unmarked) [Compound 3.006, N-[2-(6-Chloro-2H-pyrazolo[4,3-b]pyridin-2-yl)-1-cyano-1-methylethyl]-4-trifluoromethylthiobenzamide]	at least 95%	at least 90%	at least 90%	at least 90%		
CC(C#N)(Cn1nc2ccc(Cl)cc2n1)NC(=O)c1ccc(SC(F)(F)F)cc1 (centres unmarked) [Compound 1.003, N-[2-(5-Chloro-2H-benzotriazol-2-yl)-1-cyano-1-methylethyl]-4-trifluoromethylthiobenzamide]		at least 90%			at least 90%	at least 90%
CC(C#N)(Cn1cc2cc(Br)c(Cl)c(Cl)c2n1)NC(=O)c1ccc(OC(F)(F)F)cc1 (centres unmarked) [Compound 2.047, N-[2-(7-Bromo-6,7-dichloro-2H-indazol-2-yl)-1-cyano-1-methylethyl]-4-trifluoromethoxybenzamide]		at least 90%	at least 90%			
CC(C#N)(Cn1nc2c(Cl)cc(Cl)c(Br)c2n1)NC(=O)c1ccc(SC(F)(F)F)cc1 (centres unmarked) [Compound 1.087, N-[2-(4-Bromo-5,7-dichloro-2H-benzotriazol-2-yl)-1-cyano-1-methylethyl]-4-trifluoromethylthiobenzamide]		at least 90%	at least 90%			
